Values from PubChem BioAssay AID504764 (Drosophila RNAi Screening Center, 2011).
The screen tested about 22,000 reagents; shown is an unselected part of those with a known target gene and a result. Over the whole deposit, 403 (1.9%) got an active call. 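Unnormalised raw counts per well; ratio z-scores behind the hit calls and whether each hit raises or lowers signal are not deposited.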 Unmarked entries are inactive. The numbers tell different reagents against one gene apart. Reagent sequences are not shown. The record does not give: the amount of reagent.

- Aim: 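Knock-downs that raise or lower a Notch target reporter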 (primary screen)
- Cells: Drosophila Kc167 cells
- Knock-down reagent: long dsRNA against Drosophila genes
- Time to read-out: about 5 days (4 days dsRNA, then 24 h after transfection)
- Conditions: transfection of constitutively active membrane-tethered Notch lacking the extracellular domain, read 24 h later
- Measurement: 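Light from a Notch-responsive E(spl)m3 luciferase reporter under active Notch, with control-promoter and no-Notch reporter wells to normalise; raw counts from paired wells a and b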
- Reading the numbers: induced reporter light, run 1, well a and induced reporter light, run 1, well b: higher = more light from the Notch target reporter with active Notch; control promoter light, run 1, well a and control promoter light, run 1, well b: higher = more light from the viral control promoter (cell number, transfection, viability); uninduced reporter light, run 1, well a: higher = more light from the Notch target reporter without active Notch
- Hit rule: 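Wells with low control signal or poorly matching duplicates excluded; duplicates averaged; per source plate, z beyond ±2 for induced/control log2 ratio or beyond ±1.8 for induced/uninduced marks a hit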
- Calls: active = modifier hit (raised or lowered Notch signal); inactive = not a hit

Target gene | dsRNA no. | induced reporter light, run 1, well a | induced reporter light, run 1, well b | control promoter light, run 1, well a | control promoter light, run 1, well b | uninduced reporter light, run 1, well a
TwdlO | 1 | 1.44e5 | 1.60e5 | 1.78e5 | 1.86e5 | 14020
flap | 1 | 94070 | 71960 | 79690 | 72605 | 6915
flap | 2 | 1.78e5 | 1.88e5 | 1.69e5 | 1.41e5 | 13025
Cdc50 | 1 | 86700 | 85495 | 84500 | 71510 | 10625
Arp53D | 1 | 98530 | 78340 | 74810 | 56140 | 4270
inaD | 1 | 1.54e5 | 1.41e5 | 1.45e5 | 1.38e5 | 11140
robls54B | 1 | 1.33e5 | 1.04e5 | 1.52e5 | 1.42e5 | 7570
magu | 1 | 1.83e5 | 1.43e5 | 1.93e5 | 1.84e5 | 15738
Phyhd1 | 1 | 66120 | 87685 | 77420 | 77910 | 3895
NimA | 1 | 63185 | 85650 | 1.00e5 | 1.10e5 | 8420
CG13606 | 1 | 1.43e5 | 1.67e5 | 1.90e5 | 1.69e5 | 12492
OtopLc | 1 | 1.38e5 | 1.16e5 | 2.10e5 | 2.01e5 | 10260
OtopLc | 2 | 93365 | 1.06e5 | 1.43e5 | 1.68e5 | 8515
OtopLc | 3 | 1.72e5 | 1.41e5 | 2.93e5 | 2.76e5 | 10230
CG17344 | 1 | 83870 | 62240 | 77340 | 1.41e5 | 4910
CG31265 | 1 | 2.27e5 | 2.35e5 | 2.58e5 | 2.61e5 | 20260
Ssl1 | 1 | 1.40e5 | 1.35e5 | 1.14e5 | 1.20e5 | 10300
shrb | 1 | 54045 | 46890 | 55365 | 60140 | 3530
CG5561 | 1 | 1.51e5 | 1.31e5 | 1.16e5 | 76110 | 10765
CG15725 | 1 | 1.22e5 | 1.13e5 | 2.25e5 | 2.03e5 | 7795
Pak | 1 | 1.07e5 | 1.22e5 | 51135 | 48470 | 10610
BORCS6 | 1 | 1.63e5 | 1.96e5 | 2.58e5 | 2.17e5 | 9240
crb | 1 | 1.10e5 | 1.27e5 | 1.35e5 | 1.41e5 | 10365
CG4020 | 1 | 1.06e5 | 1.09e5 | 1.91e5 | 2.01e5 | 6538
CG13720 | 1 | 88120 | 1.16e5 | 1.67e5 | 1.95e5 | 8000
Ir7d | 1 | 29990 | 36030 | 49855 | 41670 | 2770
Flad2 | 1 | 1.77e5 | 1.83e5 | 1.38e5 | 1.81e5 | 17000
bbg | 1 | 2.26e5 | 2.09e5 | 2.95e5 | 2.41e5 | 4680
bbg | 2 | 1.70e5 | 1.60e5 | 2.15e5 | 1.53e5 | 6085
nac | 1 | 94105 | 1.32e5 | 1.55e5 | 1.25e5 | 7875
PPYR1 | 1 | 51695 | 53710 | 66665 | 84545 | 6810
CG14632 (retired record) | 1 | 1.25e5 | 1.07e5 | 2.25e5 | 1.81e5 | 8840
CAH5 | 1 | 1.96e5 | 1.79e5 | 2.23e5 | 2.30e5 | 16875
Dh44-R2 | 1 | 98430 | 86865 | 1.20e5 | 1.17e5 | 9040
Dh44-R2 | 2 | 75135 | 70890 | 1.05e5 | 99780 | 7270

Look-ups from the entries so far.
nac, control promoter light, run 1, well a → 1.55e5
Under “induced reporter light, run 1, well b”, CG4020 shows 1.09e5
Entry of CAH5 under “control promoter light, run 1, well b”: 2.30e5
